Experimental data: article doi:10.1101/2025.08.26.672501
These are yes or no findings as the source states them, for the method shown. Binding can be weak; no strength is given. Tags and fused reporters may be left off the sequences shown.

Amino acid sequences for entries named in this document (tags omitted). A change or cut given only in a name is not applied to a line headed by its entry.
UniProt Q96N66: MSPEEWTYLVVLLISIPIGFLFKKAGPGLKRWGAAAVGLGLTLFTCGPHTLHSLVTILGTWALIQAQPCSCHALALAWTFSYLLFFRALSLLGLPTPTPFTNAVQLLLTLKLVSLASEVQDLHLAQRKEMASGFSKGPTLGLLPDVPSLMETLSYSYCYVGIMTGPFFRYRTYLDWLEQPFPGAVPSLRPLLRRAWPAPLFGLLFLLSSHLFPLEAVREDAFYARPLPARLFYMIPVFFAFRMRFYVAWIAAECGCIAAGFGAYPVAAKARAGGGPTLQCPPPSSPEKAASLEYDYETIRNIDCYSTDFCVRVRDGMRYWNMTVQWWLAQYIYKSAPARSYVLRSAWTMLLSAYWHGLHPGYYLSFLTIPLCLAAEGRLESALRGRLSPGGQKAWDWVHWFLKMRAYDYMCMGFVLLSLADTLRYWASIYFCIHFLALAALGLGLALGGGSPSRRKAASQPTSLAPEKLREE

Target: MBOAT7-His (human) (UniProt Q96N66)
Assay: pull-down

binding: binds
B1: Flag-CDS2 (protein, UniProt O95674 1-445)
chain: MTELRQRVAHEPVAPPEDKESESEAKVDGETASDSESRAESAPLPVSADDTPEVLNRALSNLSSRWKNWWVRGILTLAMIAFFFIIIYLGPMVLMIIVMCVQIKCFHEIITIGYNVYHSYDLPWFRTLSWYFLLCVNYFFYGETVTDYFFTLVQREEPLRILSKYHRFISFTLYLIGFCMFVLSLVKKHYRLQFYMFGWTHVTLLIVVTQSHLVIHNLFEGMIWFIVPISCVICNDIMAYMFGFFFGRTPLIKLSPKKTWEGFIGGFFATVVFGLLLSYVMSGYRCFVCPVEYNNDTNSFTVDCEPSDLFRLQEYNIPGVIQSVIGWKTVRMYPFQIHSIALSTFASLIGPFGGFFASGFKRAFKIKDFANTIPGHGGIMDRFDCQYLMATFVNVYIASFIRGPNPSKLIQQFLTLRPDQQLHIFNTLRSHLIDKGMLTSTTEDE
